The campaign covered roughly 300,000 compounds. About 3,700 (1.2%) were called active. Inconclusive means that the source gave no clear call. Such entries were picked first, then a sample of the others. Calls follow the shape of the full dose curve; tested in HEK293 cells. Potencies of inconclusive entries are doubtful fits and often do not repeat.
assay: qHTS for Inhibitors of binding or entry into cells for Lassa Virus; conditions: Lassa virus pseudotype entry inhibition, cell reporter; activity change, negative = inhibition: at 37.9 µM (top of the series) unless noted; also: nearly all actives have a fitted effect of over 50% in size
% is scaled to controls: 0 for no effect and ±100 for the full control effect; potency is read from the fitted curve at half-maximal effect.

Row | Structure (SMILES) | Potency | activity change, negative = inhibition
1 | CCN1CCCC1CN(Cc1cc2ccc(C)cc2[nH]c1=O)C(=S)Nc1ccccc1C(=O)OC (centres undefined) | inconclusive: 35.5 µM [inhibitor, single point] | –
2 | COc1ccc2c(Sc3ccc(C)cc3)c(C(=O)NCCc3ccccc3)[nH]c2c1 | – | inactive: -0.0999% [at 46.1 µM]
3 | Cn1c(=O)n(C)c2cc([N+](=O)[O-])c(N3CCN(S(=O)(=O)c4ccc5ccccc5c4)CC3)cc21 | – | inactive: -28.7%
4 | CCc1ccc2c(c1)cc(CN(Cc1ccco1)C(C)=O)c1nnnn12 | inconclusive: 4.47 µM [inhibitor, full curve, poor fit] | –
5 | O=C(C1COc2ccccc2O1)N(Cc1cccnc1)c1nc2c(Cl)cccc2s1 (centres undefined) | – | inactive: 10.7% [at 46.1 µM]
6 | CCOc1cccc(C2c3[nH]c4ccccc4c3CCN2C(=O)CSCc2ccc(F)cc2)c1 (centres undefined) | inconclusive: 14.1 µM [inhibitor, single point] | –
7 | Cc1ccc2c(c1)c(CC(=O)Nc1ccc(C)c(F)c1)c(C(=O)O)n2C | inconclusive: 11.2 µM [inhibitor, single point] | –
8 | CCc1cccc(NC(=O)C2Cc3ccccc3N2C(=O)c2ccccc2)c1 (centres undefined) | – | inactive: 0.941% [at 46.1 µM]
9 | Fc1ccc(-c2nn3c(C4COc5ccccc5O4)nnc3s2)cc1 (centres undefined) | inconclusive: 5.8 µM [inhibitor, partial curve, poor fit] | –
10 | O=C(O)CCCC(=O)N1CCN(c2ncccn2)CC1 | inconclusive: 6.31 µM [inhibitor, single point] | –
11 | O=C(c1ccncc1)N1N=C2CCCCCC2C1(O)C(F)(F)F (centres undefined) | – | inactive: 12.3%
12 | Cc1snc2sc(C(=O)c3ccc(Br)cc3)c(N)c12 | inconclusive: 1.26 µM [activator, full curve, poor fit] | –
13 | O=C(Nc1ccccc1)c1c(F)c(F)c(F)c(F)c1F | – | inactive: -5.28%
14 | Cc1c(CC(=O)NC(C)C)c(=O)oc2cc3c(cc12)CCC(C)(C)O3 | – | inactive: -10.1% [at 46.1 µM]
15 | CC1CC(C)CN(C(=O)C(Cc2ccccc2)NC(=O)c2ccccc2)C1 (centres undefined) | inconclusive: 35.5 µM [inhibitor, single point] | –
16 | Cc1ccc(-n2ncc3c2CCCC3NC(=O)c2ocnc2C)cc1C (centres undefined) | inconclusive: 1.41 µM [inhibitor, full curve] | –
17 | O=C(Cn1nnc2ccccc2c1=O)NCCc1ccccc1 | inconclusive: 11.2 µM [activator, partial curve, poor fit] | –
18 | CC(=O)Nc1cccc(NC=C(C#N)C#N)c1 | inconclusive: 2.31 µM [inhibitor, partial curve, poor fit] | –
19 | COc1ccc(C(=O)N(Cc2ccco2)C(C(=O)NC2CCCC2)c2ccc(O)cc2)cc1OC (centres undefined) | inconclusive: 32.6 µM [inhibitor, single point] | –
20 | Cc1nnc(NC(=O)c2ccc(-c3ccc(Cl)cc3)o2)s1 | inconclusive: 0.891 µM [inhibitor, single point] | –
21 | CCOc1ccc(S(=O)(=O)c2cn(Cc3ccccc3C)c3ccc(OC)cc3c2=O)cc1 | inconclusive: 22.4 µM [inhibitor, single point] | –
22 | COc1cccc2sc(N(CCCN(C)C)C(=O)C(c3ccccc3)c3ccccc3)nc12 | inconclusive: 6.31 µM [inhibitor, single point] | –
23 | COc1ccc(-n2nc(C(=O)NCC(=O)N3CCCCCC3)c3ccccc3c2=O)cc1Cl | inconclusive: 35.5 µM [activator, single point] | –

By substructure: the entries above containing a furan ring, fused or not
Row | Structure (SMILES) | Potency | activity change, negative = inhibition
4 | CCc1ccc2c(c1)cc(CN(Cc1ccco1)C(C)=O)c1nnnn12 | inconclusive: 4.47 µM [inhibitor, full curve, poor fit] | –
19 | COc1ccc(C(=O)N(Cc2ccco2)C(C(=O)NC2CCCC2)c2ccc(O)cc2)cc1OC (centres undefined) | inconclusive: 32.6 µM [inhibitor, single point] | –
20 | Cc1nnc(NC(=O)c2ccc(-c3ccc(Cl)cc3)o2)s1 | inconclusive: 0.891 µM [inhibitor, single point] | –

Later entries:

Row | Structure (SMILES) | Potency | activity change, negative = inhibition
24 | O=C(Cn1cnc2onc(-c3ccc(F)cc3)c2c1=O)Nc1ccc(F)c(Cl)c1 | inconclusive: 35.5 µM [activator, single point] | –
25 | O=C(CN1c2ccccc2S(=O)(=O)c2ccccc21)Nc1ccccc1Cl | inconclusive: 15.8 µM [inhibitor, partial curve, poor fit] | –
26 | CCC12CCC3c4ccc(O)cc4CCC3C1CC(O)C2O (centres undefined) | – | inactive: -29.3%
27 | Cc1csc2c(N(C)CCO)ncnc12 | – | inactive: 5.55%
28 | CC(=O)Nc1cccc(NC(=O)c2ccc3[nH]c(C)c(C)c3c2)c1 | inconclusive: 35.5 µM [inhibitor, single point] | –
29 | CCN(CC)c1ncnnc1-c1ccccc1 | – | inactive: -2.23%
30 | CN(C)S(=O)(=O)c1ccc(C(=O)Nc2cc(S(=O)(=O)Nc3ccccc3Cl)ccc2N2CCCCC2)cc1 | active: 5.17 µM | –
31 | Cc1csc(NC(=O)CSc2nnc3ncccn23)n1 | – | inactive: 3.68%
32 | Cc1ccc(Cl)cc1N1CCN(C(=O)C2CCN(S(=O)(=O)c3cccnc3)CC2)CC1 | inconclusive: 35.5 µM [inhibitor, single point] | –
33 | C=CCn1c(CCNC(=O)c2ccccc2F)nnc1SCC(=O)Nc1ccc(OC)cc1 | inconclusive: 0.891 µM [inhibitor, single point] | –
34 | O=C(O)CCC(=O)Nc1cccc(C(=O)Nc2cccc(Cl)c2)c1 | inconclusive: 0.0891 µM [activator, full curve, poor fit] | –
35 | Cc1ccccc1CNC(=O)CCNS(=O)(=O)c1ccc(OC(F)(F)F)cc1 | – | inactive: -1.33%
36 | CN(CC(=O)Nc1ccc(Cl)cc1)C(=O)c1ccc(NS(=O)(=O)c2ccc3[nH]c(=O)[nH]c3c2)cc1 | – | inactive: 10.5%
37 | CC(C)CC(=O)N1CCC(O)(CS(=O)(=O)Cc2ccc(Cl)cc2)CC1 | inconclusive: 29.1 µM [inhibitor, partial curve, poor fit] | –
38 | Cc1cnc(NC(=O)CSc2nnc(-c3cccs3)n2C)s1 | inconclusive: 13 µM [inhibitor, single point] | –
39 | O=C(N/N=C/c1ccccn1)c1ccc(Br)cc1 | inconclusive: 35.5 µM [inhibitor, single point] | –
40 | Cc1ccc(Cl)cc1N1CCN(C(c2ccc(C#N)cc2)c2nnnn2C2CCCC2)CC1 (centres undefined) | – | inactive: -18.4%
41 | CN(C)S(=O)(=O)c1ccc(Nc2nc(C3CC3)nc3c2nnn3Cc2ccccc2Cl)cc1 | inconclusive: 11.2 µM [inhibitor, partial curve, poor fit] | –
42 | COc1ccc(C(=O)NC(=S)NC(C)c2ccccc2)cc1 (centres undefined) | inconclusive: 8.91 µM [inhibitor, partial curve, poor fit] | –
43 | CCc1ccc(NC(=O)C/C(C)=N/NC(=O)OCc2ccc(OC)cc2)cc1 | inconclusive: 3.66 µM [inhibitor, full curve, poor fit] | –
44 | CC(C)(C)c1ccccc1OCC(=O)Nc1ccccc1C(=O)NCc1cccnc1 | inconclusive: 12.6 µM [inhibitor, partial curve, poor fit] | –
45 | COc1ccc(C(=O)NCC2OCCc3ccccc32)c(O)c1 (centres undefined) | – | inactive: 0.442%
46 | O=C(CCN1C(=O)/C(=C\c2ccccc2)SC1=S)NNC(=O)c1ccccc1O | – | inactive: -16.7% [at 46.1 µM]

Quoted at random: two compounds from above, in no set order.
Row | Structure (SMILES) | Potency | activity change, negative = inhibition
39 | O=C(N/N=C/c1ccccn1)c1ccc(Br)cc1 | inconclusive: 35.5 µM [inhibitor, single point] | –
30 | CN(C)S(=O)(=O)c1ccc(C(=O)Nc2cc(S(=O)(=O)Nc3ccccc3Cl)ccc2N2CCCCC2)cc1 | active: 5.17 µM | –

Next part.

Row | Structure (SMILES) | Potency | activity change, negative = inhibition
47 | COc1ccccc1N1CCN(c2ccnc3cc(Cl)ccc23)CC1 | inconclusive: 7.08 µM [inhibitor, partial curve, poor fit] | –
48 | COc1ccc(C)cc1NC(=O)C1CCN(S(=O)(=O)c2ccc3c(c2)CCCN3C(C)=O)CC1 | – | inactive: 7.72% [at 46.1 µM]
49 | O=C(Nc1ccc(N2CCN(c3ccc(F)cc3)CC2)c(C(=O)O)c1)c1ccccc1F | – | inactive: -0.795% [at 46.1 µM]
50 | CCCCC(=O)NC(c1ccc(OC)c(OC)c1)c1c(O)ccc2ccccc12 (centres undefined) | inconclusive: 0.794 µM [inhibitor, partial curve, poor fit] | –
51 | Cc1ccc2nc(-c3ccccn3)oc2c1 | inconclusive: 29.1 µM [inhibitor, single point] | –
52 | COC(=O)CNc1nc(-c2ccncc2)nc2ccccc12 | inconclusive: 35.5 µM [inhibitor, single point] | –
53 | CCOC(=O)C1C(c2cccs2)NC(=O)N(C)C1(O)C(F)(F)F (centres undefined) | – | inactive: -6.93%
54 | CC(=O)N1CCC2(CC1)NC(=O)N(c1ccccc1)N2 | inconclusive: 10 µM [inhibitor, partial curve, poor fit] | –
55 | O=C(CC1SCCNC1=O)Nc1ccc(F)c(Cl)c1 (centres undefined) | inconclusive: 31.6 µM [activator, single point] | –
56 | CCSc1ncc(Cl)c(C(=O)N(Cc2ccc(N(C)C)cc2)Cc2ccco2)n1 | – | inactive: -10.7% [at 46.1 µM]
57 | CCN(CC)CCN(Cc1cc2ccc(C)cc2[nH]c1=O)C(=O)NC1CCCCC1 | – | inactive: 0.744%
58 | COCCNC(=O)CSc1nc2cc3c(cc2c(=O)n1CCCC(=O)NCc1ccc(OC)cc1)OCO3 | inconclusive: 6.31 µM [activator, single point] | –
59 | Cc1cc(Cl)ccc1OCC(=O)N1CCCN(C(=O)COc2ccc(Cl)cc2C)CC1 | inconclusive: 29.1 µM [inhibitor, single point] | –
60 | O=C(CS(=O)(=O)c1cccc2nsnc12)Nc1ccc(F)cc1 | – | inactive: 9.33% [at 46.1 µM]
61 | N=c1nc(SCCC(=O)O)ss1 | inconclusive: 6.31 µM [inhibitor, partial curve, poor fit] | –
62 | Cc1ccc2c(c1)C=CC(C#N)N2C(=O)c1ccccc1 (centres undefined) | inconclusive: 0.92 µM [inhibitor, partial curve, poor fit] | –
63 | Cc1ccc(S(=O)(=O)N2CCCC2)cc1[N+](=O)[O-] | – | inactive: 3.23%
64 | COc1ccc(OC)c(NC(=O)CSc2cn(CC(=O)N3CCCCCC3)c3ccccc23)c1 | inconclusive: 8.91 µM [inhibitor, partial curve, poor fit] | –
65 | C/C(=N\NC(=O)COc1ccccc1)c1cccs1 | inconclusive: 0.92 µM [activator, partial curve, poor fit] | –
66 | CCCN(CCC)CCNC(=O)Cn1cc2c(n1)-c1c(oc(C(=O)N3CCCC3)c1C)CC2 | – | inactive: -15.9% [at 46.1 µM]
67 | COc1ccc(-c2cn3ccccc3n2)cc1[N+](=O)[O-] | inconclusive: 22.4 µM [inhibitor, single point] | –
68 | CCOC(=O)Cc1csc(SCC(=O)c2c(N)n(CC(C)C)c(=O)n(C)c2=O)n1 | inconclusive: 0.82 µM [inhibitor, full curve, poor fit] | –
69 | Cc1cccc(-c2nnn3c2nc(NCCc2ccc(S(N)(=O)=O)cc2)c2ccccc23)c1 | inconclusive: 3.55 µM [inhibitor, single point] | –

Reference: PubChem BioAssay AID540256 (National Center for Advancing Translational Sciences (NCATS), 2011)
